{
  "sequences": {"note": "Sequences of proteins named here, by UniProt entry; tags and fusion partners are left off. A change or cut given only in a name is not applied to a line headed by its entry.", "UniProt P42224": "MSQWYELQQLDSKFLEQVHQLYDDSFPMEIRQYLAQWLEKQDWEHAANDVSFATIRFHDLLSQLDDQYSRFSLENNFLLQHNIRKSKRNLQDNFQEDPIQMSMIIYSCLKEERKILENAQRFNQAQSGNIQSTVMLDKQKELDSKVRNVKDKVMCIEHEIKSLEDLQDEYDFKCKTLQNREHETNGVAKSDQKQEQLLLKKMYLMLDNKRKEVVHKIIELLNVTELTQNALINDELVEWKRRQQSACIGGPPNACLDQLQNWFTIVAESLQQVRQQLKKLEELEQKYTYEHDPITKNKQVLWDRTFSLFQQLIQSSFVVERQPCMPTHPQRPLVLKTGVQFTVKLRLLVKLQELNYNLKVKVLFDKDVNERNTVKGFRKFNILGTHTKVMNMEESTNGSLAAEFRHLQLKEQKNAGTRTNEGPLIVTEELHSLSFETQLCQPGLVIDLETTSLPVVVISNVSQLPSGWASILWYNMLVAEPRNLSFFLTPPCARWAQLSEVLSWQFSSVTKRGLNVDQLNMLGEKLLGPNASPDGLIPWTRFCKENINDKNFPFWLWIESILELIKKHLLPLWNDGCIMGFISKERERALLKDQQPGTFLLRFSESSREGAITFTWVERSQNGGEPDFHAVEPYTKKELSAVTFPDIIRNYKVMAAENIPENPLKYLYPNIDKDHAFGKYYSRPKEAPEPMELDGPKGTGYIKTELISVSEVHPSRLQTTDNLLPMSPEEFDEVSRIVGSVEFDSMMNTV"},
  "source": "patent US6030780",
  "key": {"[1]": {"biological_target": "Stat1alpha, phosphorylated Tyr701 (Homo sapiens) (UniProt P42224)", "experiment": "EMSA", "conditions": "purified recombinant protein, label: 32P, variant of 2x cfosWT (10 bp spacing)"}, "[2]": {"biological_target": "Stat1tc, phosphorylated Tyr701 (Homo sapiens) (UniProt P42224)", "experiment": "EMSA", "conditions": "dimer and 2x(dimer) formed but displaced in <1 min; no N-terminal 131 aa; purified recombinant protein; label: 32P"}},
  "note": "A weaker result is weaker than the reference pair of the same experiment. For part of these data: The exact form of at least one protein or probe is not confirmed.",
  "data": [
    {"sequence": "AGTCAGTTCCCGTCAATGAGTTCCCGTCAATGCA (double strand) [2x cfosWT (5 bp spacing)]", "values": [
      {"measurement": "binding result", "setting": "[1]; much less enhanced stability of 2x(dimer) complex", "result": "binds more weakly"}
    ]},
    {"sequence": "AGTCAGTTCCCGTCAATGCATCAGGTTCCCGTCAATGCAT (double strand) [2x cfosWT (10 bp spacing)]", "values": [
      {"measurement": "binding result", "setting": "[2]", "result": "binds more weakly"}
    ]},
    {"sequence": "AGTCATTTCCCGTCAATGCATCAGTTGACGGGAAAGTAGT (double strand) [2x cfosWT (inverted repeat)]", "values": [
      {"measurement": "binding result", "setting": "[1]; much less 2x(dimer) complex, no increased stability", "result": "binds more weakly"}
    ]}
  ]
}
